Assay [1] has as its target T1, TESMIN-BioID2-3xFLAG (mouse) (UniProt Q9WTJ6).
T1 sequence: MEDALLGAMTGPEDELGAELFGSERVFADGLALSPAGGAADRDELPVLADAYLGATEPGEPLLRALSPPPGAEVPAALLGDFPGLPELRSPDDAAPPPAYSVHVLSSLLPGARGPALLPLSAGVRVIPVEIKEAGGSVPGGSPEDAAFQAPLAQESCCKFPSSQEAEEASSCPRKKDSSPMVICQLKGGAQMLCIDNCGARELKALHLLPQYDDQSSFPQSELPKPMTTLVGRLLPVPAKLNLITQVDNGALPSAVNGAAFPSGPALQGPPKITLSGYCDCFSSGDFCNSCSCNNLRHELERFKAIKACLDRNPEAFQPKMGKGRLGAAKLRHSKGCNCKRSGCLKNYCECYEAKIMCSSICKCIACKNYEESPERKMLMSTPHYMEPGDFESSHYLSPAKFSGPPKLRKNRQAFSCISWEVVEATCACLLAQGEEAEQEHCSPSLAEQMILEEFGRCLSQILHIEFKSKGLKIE
The experiment in a line: affinity purification with mass spectrometry; anti-FLAG immunoprecipitation (Protein G magnetic beads) from NP40 lysate of BioID2-Tg positive Tesmin KO mice, WT as control, two mice per group; LC-MS/MS; SAINT analysis.

Protein sequences, listed by entry. Tags and fused reporters are not part of them.
UniProt P51960: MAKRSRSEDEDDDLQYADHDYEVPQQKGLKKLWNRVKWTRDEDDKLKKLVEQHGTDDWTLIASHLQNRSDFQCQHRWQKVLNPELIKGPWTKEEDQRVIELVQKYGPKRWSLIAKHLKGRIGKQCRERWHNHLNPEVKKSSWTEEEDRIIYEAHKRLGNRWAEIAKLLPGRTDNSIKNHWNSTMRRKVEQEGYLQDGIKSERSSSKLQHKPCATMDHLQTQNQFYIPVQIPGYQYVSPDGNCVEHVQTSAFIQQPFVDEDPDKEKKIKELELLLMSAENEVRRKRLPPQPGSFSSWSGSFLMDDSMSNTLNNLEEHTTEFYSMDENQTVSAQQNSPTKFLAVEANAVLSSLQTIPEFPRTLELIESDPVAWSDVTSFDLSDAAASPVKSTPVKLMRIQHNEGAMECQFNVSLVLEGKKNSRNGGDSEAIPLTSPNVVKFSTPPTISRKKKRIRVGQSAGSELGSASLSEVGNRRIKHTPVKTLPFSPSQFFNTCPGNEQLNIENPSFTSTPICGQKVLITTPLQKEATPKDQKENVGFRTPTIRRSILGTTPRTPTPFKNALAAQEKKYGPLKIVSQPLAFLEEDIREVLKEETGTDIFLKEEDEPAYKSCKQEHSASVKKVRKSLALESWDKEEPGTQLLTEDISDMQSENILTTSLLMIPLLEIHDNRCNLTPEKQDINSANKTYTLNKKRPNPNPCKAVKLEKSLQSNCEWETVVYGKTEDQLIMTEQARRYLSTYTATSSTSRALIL

For assay [2], the target named is T2, TESMIN-TurboID-3xFLAG (mouse) (UniProt Q9WTJ6).
T2 sequence: T1 sequence
The experiment in a line: proximity labelling; TESMIN-TurboID in testicular germ cells of TurboID-Tg positive mice; TGCs incubated in 500 μM biotin medium for 1 h; streptavidin bead pull-down of biotinylated proteins, LC-MS/MS.

In assay [3] the target is T1, TESMIN-BioID2-3xFLAG (mouse). The experiment in a line: proximity labelling; TESMIN-BioID2; streptavidin pull-down of biotinylated proteins, immunoblot for MYBL1, LIN9, DVL2. In general terms: In western blotting, separated proteins are transferred to a membrane and probed.
The target is the same in assay [4]. Description: proximity labelling; TESMIN-BioID2 in testicular germ cells of BioID2-Tg positive KO (also Het) mice; TGCs incubated in 50 µM biotin medium 16 h at 34 °C, or fresh TGCs, or mice injected with biotin 24 μg/g for 3 days; streptavidin bead pull-down of biotinylated proteins, LC-MS/MS; WT as control; SAINT analysis.

Results are given in words; binding and its absence hold for the method and conditions named. Binding seen in cells or lysates may run through a third protein. A yes stands for co-enrichment or nearness to the bait. Other partners may have been found. For some of these results: A no says only that the protein was not detected with the bait. Where a sequence is shown, tags or fusion partners need not be part of it.

On to MYBL1 (from UniProt P51960 1-751), for which the binding result in assay [1], in assay [2], in assay [3] and in assay [4] was “binds” each time.

B1: disheveled segment polarity protein 1 (DVL1) (protein, UniProt P51141 1-695)
chain: MAETKIIYHMDEEETPYLVKLPVAPERVTLADFKNVLSNRPVHAYKFFFKSMDQDFGVVKEEIFDDNAKLPCFNGRVVSWLVLAEGAHSDAGSQGTDSHTDLPPPLERTGGIGDSRPPSFHPNVASSRDGMDNETGTESMVSHRRERARRRNRDEAARTNGHPRGDRRRDLGLPPDSASTVLSSELESSSFIDSDEEDNTSRLSSSTEQSTSSRLVRKHKCRRRKQRLRQTDRASSFSSITDSTMSLNIITVTLNMERHHFLGISIVGQSNDRGDGGIYIGSIMKGGAVAADGRIEPGDMLLQVNDVNFENMSNDDAVRVLREIVSQTGPISLTVAKCWDPTPRSYFTIPRADPVRPIDPAAWLSHTAALTGALPRYGTSPCSSAITRTSSSSLTSSVPGAPQLEEAPLTVKSDMSAIVRVMQLPDSGLEIRDRMWLKITIANAVIGADVVDWLYTHVEGFKERREARKYASSMLKHGFLRHTVNKITFSEQCYYVFGDLCSNLASLNLNSGSSGASDQDTLAPLPHPSVPWPLGQGYPYQYPGPPPCFPPAYQDPGFSCGSGSAGSQQSEGSKSSGSTRSSHRTPGREERRATGAGGSGSESDHTVPSGSGSTGWWERPVSQLSRGSSPRSQASAVAPGLPPLHPLTKAYAVVGGPPGGPPVRELAAVPPELTGSRQSFQKAMGNPCEFFVDIM
Turning to B1, in assay [2], the binding entry is “no binding”.

B2: DVL2 (protein, UniProt Q60838 1-736)
chain: MAGSSAGGGGVGETKVIYHLDEEETPYLVKIPVPAERITLGDFKSVLQRPAGAKYFFKSMDQDFGVVKEEISDDNARLPCFNGRVVSWLVSSDTPQPEVAPPAHESRTELVPPPPPLPPLPPERTSGIGDSRPPSFHPNVSSSHENLEPETETESVVSLRRDRPRRRDSSEHGAGGHRPGGPSRLERHLAGYESSSTLMTSELESTSLGDSDEDDTMSRFSSSTEQSSASRLLKRHRRRRKQRPPRMERTSSFSSVTDSTMSLNIITVTLNMEKYNFLGISIVGQSNERGDGGIYIGSIMKGGAVAADGRIEPGDMLLQVNDMNFENMSNDDAVRVLRDIVHKPGPIVLTVAKCWDPSPQAYFTLPRNEPIQPIDPAAWVSHSAALTGAFPAYPGSSSMSTITSGSSLPDGCEGRGLSVHMDMASVTKAMAAPESGLEVRDRMWLKITIPNAFLGSDVVDWLYHHVEGFPERREARKYASGLLKAGLIRHTVNKITFSEQCYYVFGDLSGGCESYLVNLSLNDNDGSSGASDQDTLAPLPGATPWPLLPTFSYQYPAPHPYSPQPPPYHELSSYTYGGGSASSQHSEGSRSSGSTRSDGGAGRTGRPEERAPESKSGSGSESELSSRGGSLRRGGEPGGTGDGGPPPSRGSTGAPPNLRALPGLHPYGAPSGMALPYNPMMVVMMPPPPPPVSTAVQPPGAPPVRDLGSVPPELTASRQSFHMAMGNPSEFFVDVM
As to B2, the binding entry in assay [2] is “no binding”.

B3: LIN9 (protein, UniProt Q8C735 1-542)
chain: MAELDQLPDESSSAKALVSLKEGSLSNTWNEKYSSLQKTPVWKGRNAGPAVEMPFRNSKRSRLFSDEDDRQINTKSPKRNQRVAMIPQKFTATMSTPDKKASQKIGFRLRNLLKLPKAHKWCIYEWFYSNIDKPLFEGDNDFCVCLKESFPNLKTRKLTRVEWGKIRRLMGKPRRCSSAFFEEERSALKQKRQKIRLLQQRKVADVSQFKDLPDEIPLPLVIGTKVTARLRGIHDGLFTGQIDAVDTLNATYRVTFDRTGLGTHTIPDYEVLSNEPHETMPISAFGQKQRPSRFFMTPPRLHYTPPLQSPITDGDPLLGQSPWRSKVSGSDTETLGGFPVEFLIQVTKLSKILMIKKEHIKKLREMNTEAEKLKSYSMPIGIEFQRRYATIVLELEQLNKDLNKVLHKVQQYCYELAPDQGLQPADQPTDMRRRCEEEAQEIVRQANSASGQPCVENENLTDLISRLTAILLQIKCLAEGGDLNSFEFKSLTDSLNDIKNTIDASNISCFQNNVEIHVAHIQSGLSQMGNLHAFAANNTNRD
In the case of B3, the binding entry in assay [1], in assay [2], in assay [3] and in assay [4] was “binds” in each case.

The values are drawn from PMC9789103.
